These are yes or no findings as the source states them, for the method shown. Some entries that bind do so weakly or less than the wild type.
Molecular target: GAL4 activation domain fusion to HAB1^!-2 (pACT-HAB1^!-2; HAB1^V393R/R505A) (Arabidopsis thaliana (Mouse-ear cress)) (UniProt Q9CAJ0)
Experiment: Y2H, mandipropamid (FIG. 3)

Sequences of proteins named here, by UniProt entry; tags and fusion partners are left off. A change or cut given only in a name is not applied to a line headed by its entry.
UniProt Q9CAJ0: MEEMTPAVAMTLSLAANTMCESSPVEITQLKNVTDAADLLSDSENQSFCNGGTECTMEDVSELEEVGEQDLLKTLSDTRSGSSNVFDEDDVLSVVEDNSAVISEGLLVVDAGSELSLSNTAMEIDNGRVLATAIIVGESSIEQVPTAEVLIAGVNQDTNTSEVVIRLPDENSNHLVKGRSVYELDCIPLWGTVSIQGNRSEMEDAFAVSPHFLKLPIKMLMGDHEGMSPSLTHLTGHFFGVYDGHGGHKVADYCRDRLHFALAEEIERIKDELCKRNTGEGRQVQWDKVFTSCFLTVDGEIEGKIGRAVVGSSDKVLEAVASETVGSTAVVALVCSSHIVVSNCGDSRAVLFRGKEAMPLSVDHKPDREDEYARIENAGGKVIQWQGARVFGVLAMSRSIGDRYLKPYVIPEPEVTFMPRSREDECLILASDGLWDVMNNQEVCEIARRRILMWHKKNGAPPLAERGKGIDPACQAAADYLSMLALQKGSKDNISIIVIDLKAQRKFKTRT
UniProt O49686: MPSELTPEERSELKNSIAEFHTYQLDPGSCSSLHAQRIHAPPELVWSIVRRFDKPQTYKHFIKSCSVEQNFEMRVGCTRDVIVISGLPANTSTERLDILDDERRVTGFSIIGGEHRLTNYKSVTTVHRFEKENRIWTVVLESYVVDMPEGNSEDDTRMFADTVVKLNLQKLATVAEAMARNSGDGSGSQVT

binding: binds
Substance: GAL4 DNA binding domain fusion to PYR1^!-MANDI (PYR1^Y58H;K59R;V81I;F108A;S122G;F159L;T162D) (from UniProt O49686 1-191) (receptor)
